No constants are given. Whether binding was seen depends on the method and setting. Binding seen in cells or lysates may run through a third protein. Some entries that bind do so weakly or less than the wild type. For some of these results: Sequences can lack the tags named with a protein. Values belong to the binder of their own block, whether it stands above or below them.
Assays:
[1] = biological target: PKR‐Flag expressed in HEK293T cells (UniProt P19525); assay: co-IP; HEK293T cells transfected with tagged plasmids (in some panels with circWDR37 or forced PKR expression); lysed in coIP buffer, antibody at 4 °C overnight, beads 1 h at room temperature, washed ten times, western blot
[2] = biological target: GST‐PKR (UniProt P19525); assay: pull-down; 20 µg purified GST-PKR or GST-PKR^T446DT451D on glutathione Sepharose 4B; lysate of transfected 293T cells added at 4 °C overnight; washed six times with NETN buffer (20 mM Tris-HCl pH 8.0, 100 mM NaCl, 1 mM EDTA, 0.5% NP-40); western blot; only the target purified
[3] = biological target: p65‐Flag, Q04206; assay: co-IP; HEK293T cells transfected with tagged plasmids (in some panels with circWDR37 or forced PKR expression); lysed in coIP buffer, antibody at 4 °C overnight, beads 1 h at room temperature, washed ten times, western blot; settings: remark: other sources report otherwise
[4] = biological target: double‐stranded RNA‐activated protein kinase R (PKR), endogenous in NPC cells (human (endogenous in HONE1 and S18)) (UniProt P19525); assay: co-IP; HONE1 cells treated with si-circWDR37 or siSCR; PKR with PACT or TRBP; which protein was precipitated is not told

By UniProt entry, the sequences of proteins in these tests, tags left out.
UniProt P19525: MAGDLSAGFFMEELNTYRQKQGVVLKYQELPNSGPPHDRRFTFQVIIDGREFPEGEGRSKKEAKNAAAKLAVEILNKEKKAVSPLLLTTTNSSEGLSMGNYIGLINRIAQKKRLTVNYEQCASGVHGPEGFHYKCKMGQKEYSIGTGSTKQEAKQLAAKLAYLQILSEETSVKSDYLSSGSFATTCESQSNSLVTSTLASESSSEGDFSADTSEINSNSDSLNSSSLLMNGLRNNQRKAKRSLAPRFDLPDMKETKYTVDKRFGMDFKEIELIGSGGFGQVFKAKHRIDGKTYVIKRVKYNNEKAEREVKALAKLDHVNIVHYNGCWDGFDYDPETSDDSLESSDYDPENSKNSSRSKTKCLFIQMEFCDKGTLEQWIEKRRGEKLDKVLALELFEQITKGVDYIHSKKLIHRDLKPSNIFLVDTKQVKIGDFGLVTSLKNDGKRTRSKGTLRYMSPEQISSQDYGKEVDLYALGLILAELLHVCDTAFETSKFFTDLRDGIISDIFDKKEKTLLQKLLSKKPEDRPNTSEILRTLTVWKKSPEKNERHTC

binding [1]: binds
binding [2]: binds
B1: IKKβ‐HA (I‐kappaB kinase beta), full length (protein, UniProt O14920 1-756)
chain: MSWSPSLTTQTCGAWEMKERLGTGGFGNVIRWHNQETGEQIAIKQCRQELSPRNRERWCLEIQIMRRLTHPNVVAARDVPEGMQNLAPNDLPLLAMEYCQGGDLRKYLNQFENCCGLREGAILTLLSDIASALRYLHENRIIHRDLKPENIVLQQGEQRLIHKIIDLGYAKELDQGSLCTSFVGTLQYLAPELLEQQKYTVTVDYWSFGTLAFECITGFRPFLPNWQPVQWHSKVRQKSEVDIVVSEDLNGTVKFSSSLPYPNNLNSVLAERLEKWLQLMLMWHPRQRGTDPTYGPNGCFKALDDILNLKLVHILNMVTGTIHTYPVTEDESLQSLKARIQQDTGIPEEDQELLQEAGLALIPDKPATQCISDGKLNEGHTLDMDLVFLFDNSKITYETQISPRPQPESVSCILQEPKRNLAFFQLRKVWGQVWHSIQTLKEDCNRLQQGQRAAMMNLLRNNSCLSKMKNSMASMSQQLKAKLDFFKTSIQIDLEKYSEQTEFGITSDKLLLAWREMEQAVELCGRENEVKLLVERMMALQTDIVDLQRSPMGRKQGGTLDDLEEQARELYRRLREKPRDQRTEGDSQEMVRLLLQAIQSFEKKVRVIYTQLSKTVVCKQKALELLPKVEEVVSLMNEDEKTVVRLQEKRQKELWNLLKIACSKVRGPVSGSPDSMNASRLSQPGQLMSQPSTASNSLPEPAKKSEELVAEAHNLCTLLENAIQDTVREQDQSFTALDWSWLQTEEEEHSCLEQAS

binding [3]: binds
B2: IκBα‐myc (NF‐κB inhibitor alpha), P25963 1-317 (protein)
chain: MFQAAERPQEWAMEGPRDGLKKERLLDDRHDSGLDSMKDEEYEQMVKELQEIRLEPQEVPRGSEPWKQQLTEDGDSFLHLAIIHEEKALTMEVIRQVKGDLAFLNFQNNLQQTPLHLAVITNQPEIAEALLGAGCDPELRDFRGNTPLHLACEQGCLASVGVLTQSCTTPHLHSILKATNYNGHTCLHLASIHGYLGIVELLVSLGADVNAQEPCNGRTALHLAVDLQNPDLVSLLLKCGADVNRVTYQGYSPYQLTWGRPSTRIQQQLGQLTLENLQMLPESEDEESYDTESEFTEFTEDELPYDDCVFGGQRLTL

binding [4]: binds
B3: TAR RNA‐binding protein (TRBP) (protein, UniProt Q15633 1-366)
chain: MSEEEQGSGTTTGCGLPSIEQMLAANPGKTPISLLQEYGTRIGKTPVYDLLKAEGQAHQPNFTFRVTVGDTSCTGQGPSKKAAKHKAAEVALKHLKGGSMLEPALEDSSSFSPLDSSLPEDIPVFTAAAAATPVPSVVLTRSPPMELQPPVSPQQSECNPVGALQELVVQKGWRLPEYTVTQESGPAHRKEFTMTCRVERFIEIGSGTSKKLAKRNAAAKMLLRVHTVPLDARDGNEVEPDDDHFSIGVGSRLDGLRNRGPGCTWDSLRNSVGEKILSLRSCSLGSLGALGPACCRVLSELSEEQAFHVSYLDIEELSLSGLCQCLVELSTQPATVCHGSATTREAARGEAARRALQYLKIMAGSK

Reference: article PMC10015868
